This is one part of the list. Further columns of the screen follow, without active or inactive calls.
Assay: modulators of CD8 T cell-vesicle binding, confirmation, cherry-picked primary hits, two concentrations (AID 2810);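 also: lower values mean blocking of vesicle binding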;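 as to percent response (vesicle binding): ratio of mean FL2 vesicle stain of CD8+ cells to that row's control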
Conditions: 2C CD8+ T cell-vesicle binding, flow cytometry; for double positive events: CD8+/vesicle+ events
[1] = at 15.4 µM, stronger effect = lower value

| SMILES | double positive events (at 7.7 µM) | double positive events [1] | percent response (vesicle binding) (at 7.7 µM) |
| --- | --- | --- | --- |
| S=c1[nH]nc(Cc2cccs2)n1-c1ccccc1 | 11.3% | 19.8% | 193% |
| CCc1nnc(NC(=O)C2CCN(C(=O)NC3CCCCC3)CC2)s1 | 15.2% | 19.1% | 168% |
| CCCN1CC23C=CC(O2)C(C(=O)O)C3C1=O (stereo not drawn) | 32.1% | 13% | 338% |
| CCOc1ccccc1-n1c(SCC(N)=O)nnc1-c1ccc(O)cc1 | 9.1% | 22% | 139% |
| C/C(=N\NC(=O)c1ccccc1[N+](=O)[O-])c1c(O)cc(C)oc1=O | 16.1% | 22.8% | 318% |
| C=CCNC(=S)Nc1sc2c(c1C(N)=O)CCCC2 | 7.7% | 10.4% | 141% |
| O=C1/C(=C/c2ccccc2)Oc2cc(OC(=O)N3CCOCC3)ccc21 | 7.9% | 26.5% | 182% |
| COc1ccccc1C(=O)COC(=O)C1CCN(S(=O)(=O)c2ccc(C)c(C)c2)CC1 | 14.5% | 12.1% | 471% |
| Cc1ccc(NC(=O)CN(C)C(=O)C(C)N2CCN(Cc3ccccc3C)CC2)cc1 (stereo not drawn) | 11.6% | 23% | 176% |
| COc1ccccc1CC(=O)Nc1ccccc1C(=O)O | 43% | 32.8% | 314% |
| C[C@@H]1COC(=O)[C@H](Cc2ccc(F)cc2)CC/C=C\C[C@@H](CC(=O)NCCO)C(=O)N1 | 38.9% | 20.7% | 427% |
| Cc1cc(Br)c(NC(=O)c2c(-c3c(Cl)cccc3Cl)noc2C)c(Br)c1 | 13.2% | 24.2% | 137% |
| Cc1cccc(OCC(=O)Nc2ccccc2C(=O)N2CCOCC2)c1 | 14.9% | 4.9% | 196% |
| COc1ccc(N2CCN(C(CNC(=O)C(=O)NCCC3=CCCCC3)c3ccco3)CC2)cc1 (stereo not drawn) | 28.8% | 12.6% | 237% |
| CN(C)c1ccc(N=Cc2nc(-c3ccccc3)oc2OC(=O)c2ccccc2)cc1 | 9.5% | 35.5% | 156% |
| CCCC(=O)NC(c1ccco1)c1cc([N+](=O)[O-])c2cccnc2c1O (stereo not drawn) | 10.1% | 13.9% | 255% |
| CCC(=O)c1ccc2c(c1)OCCO2 | 31.7% | 10.4% | 220% |
| CCOC1(c2ccccc2)CC1C(=O)N/N=C/c1cccc([N+](=O)[O-])c1 (stereo not drawn) | 21.2% | 15.8% | 130% |
| Cc1c(Cl)cccc1NC(=O)c1cc(C2CC2)on1 | 21.8% | 7.9% | 244% |
| COCCNc1nc2nonc2nc1N1C[C@H]2CC[C@H]1C2 | 39.5% | 14.5% | 320% |
| CCCCCCCN(C(=O)CCl)c1ccccc1C | 20.3% | 8.2% | 225% |

| SMILES | double positive events (at 7.7 µM) | double positive events [1] | percent response (vesicle binding) (at 7.7 µM) |
| --- | --- | --- | --- |
| O=C(c1ccc([N+](=O)[O-])o1)N(Cc1nnc(-c2ccccc2Cl)o1)C1CC1 | 17.6% | 15% | 108% |
| COc1ccc(/C=N/NC(=O)c2ccco2)cc1Cn1nc(C)cc1C | 33.2% | 16.6% | 337% |
| Cn1cccc1C(=O)NNC(=O)c1ccccc1Br | 9.2% | 25.4% | 142% |
| O=C(NC1CCCC1)C1CC(c2ccc(F)cc2)=NO1 (stereo not drawn) | 36.6% | 13.2% | 248% |
| CCOC(=O)c1cn(Cc2cccc(C)c2)nn1 | 21.7% | 20.3% | 755% |
| Cc1nc(NC(=O)CSc2nc3cccnc3n2Cc2ccccc2)sc1C | 30.8% | 23.9% | 121% |
| O=C(/C=C/c1ccc(F)cc1)N1CC[C@@]2(O)CCCC[C@H]2C1 | 27.6% | 15.1% | 138% |
| O=C1N=c2ccccc2=C1c1[nH]c(=S)[nH]c1O | 10.4% | 22.7% | 287% |
| CCOc1ccc(S(=O)(=O)N2CCC(C(=O)Nc3cc(S(C)(=O)=O)ccc3Cl)CC2)cc1 | 16.6% | 15.1% | 525% |
| COC(=O)C(Cc1ccccc1)NC(=O)CNC(=O)c1ccc(Br)o1 (stereo not drawn) | 27.5% | 19.2% | 460% |
| CCN(C(=O)c1cc2c(=O)[nH]c3ccc(C)cc3c2s1)c1cccc(C)c1 | 10.6% | 31.3% | 134% |
| O=C(OCC(=O)N1CCc2ccccc2C1)c1ccc(F)cc1Cl | 21.8% | 25.4% | 251% |
| O=C(/C=C/c1ccccc1Cl)NCCc1ccccc1 | 8.2% | 4.2% | 395% |
| COc1cc(/C=C/C(=O)OCC(=O)Nc2cccc(Oc3ccccc3)c2)ccc1O | 22.2% | 6.6% | 209% |
| CCCn1c(SCC(=O)NCc2cccs2)nc2c1c(=O)n(C)c(=O)n2C | 32.3% | 19.6% | 241% |
| O=C(COC(=O)/C=C/c1ccc(OC(F)F)cc1)NC1CCCC1 | 19.1% | 16.4% | 87% |
| CCOC(=O)c1cnc(=O)[nH]c1C | 14.2% | 10.9% | 284% |
| COc1cccc(NC(=O)CSc2nc3ccccc3c3nc4ccccc4n23)c1 | 14.6% | 30.3% | 239% |
| O=C(CS(=O)(=O)Cc1ccccc1)N1CCc2ccccc21 | 7.1% | 4.4% | 182% |
| C[C@H](NS(=O)(=O)c1ccccc1)C(=O)OCC(=O)NC(=O)Nc1ccc2c(c1)OCCO2 | 10% | 24.8% | 480% |
| Cn1c(=O)c2[nH]c(-c3ccccc3Cl)c(O)c2n(C)c1=O | 9.6% | 31.4% | 107% |

| SMILES | double positive events (at 7.7 µM) | double positive events [1] | percent response (vesicle binding) (at 7.7 µM) |
| --- | --- | --- | --- |
| COc1cccc(CN(C)CC(=O)NNC(=O)c2ccc(Cl)cc2)c1 | 10.7% | 24.7% | 262% |
| COc1ccc2nc(N3C(=O)/C(=C/c4ccccc4)NC3=S)sc2c1 | 40.3% | 29% | 289% |
| Cc1ccc(N2CC(C(=O)NC3=NCCS3)CC2=O)cc1 (stereo not drawn) | 8.4% | 10.6% | 241% |
| Cc1cccc(NC(=O)c2ccc(OCc3c(C)noc3C)cc2)n1 | 10.5% | 19.7% | 387% |
| O=C(NCC(c1ccco1)N1CCc2ccccc2C1)c1ccc(F)cc1 (stereo not drawn) | 13% | 14% | 170% |
| CC1CCC(C(=O)c2c(O)c3ccccc3oc2=O)CC1 (stereo not drawn) | 8% | 21.2% | 119% |
| COc1ccc(NS(=O)(=O)c2cc3c4c(c2)CCN4C(=O)CC3)cc1OC | 6.1% | 9.6% | 103% |
| COc1cc(C2C(C#N)=C(N)Oc3c2ccc2ccccc32)ccc1OCC(=O)Nc1cccc(C)c1 (stereo not drawn) | 17.3% | 20.8% | 148% |
| COc1ccc(CNC(=O)CCc2ccc(S(=O)(=O)N3CCCCCC3)cc2)cc1 | 14.8% | 18.3% | 528% |
| Cc1nc(-c2ccccc2)[nH]c(=O)c1Oc1ccc(Cl)cc1Cl | 13.4% | 19.9% | 360% |
| CC(=O)NC(CC(=O)O)c1ccc(F)cc1 (stereo not drawn) | 10.9% | 16.8% | 354% |
| COC(=O)c1sccc1S(=O)(=O)N1CCCC(N(C)CCc2ccccn2)C1 (stereo not drawn) | 19.9% | 33.7% | 204% |
| Fc1ccc(CNC(=S)NCc2ccccc2)cc1 | 9.9% | 33.6% | 402% |
| CCOc1ccc(NC(=O)CCC(=O)NNC(=O)c2cccc([N+](=O)[O-])c2)cc1 | 19.6% | 31.1% | 132% |
| CC(=O)c1ccc(NC(=O)c2ccc3c(Cl)c4c(nc3c2)CCCC4)cc1 | 15.1% | 17.6% | 198% |
| Cc1cccc(N(C(=O)c2snc(C(N)=O)c2N)C(C(=O)NCC2CCCO2)c2ccc(N(C)C)cc2)c1C (stereo not drawn) | 6.5% | 11.5% | 126% |
| CC(=O)Nc1ccc2nc(C3CC3)n(Cc3ccc(Cl)cc3)c(=O)c2c1 | 21% | 6.7% | 287% |
| COc1ccc2c(c1)OC(c1ccccc1)(C(F)(F)F)NC2=O (stereo not drawn) | 17.8% | 35.8% | 84.4% |
| CCN(CC)S(=O)(=O)c1ccc(/C(O)=C(\C#N)c2nc3ccccc3n2C)cc1 | 10.9% | 17.6% | 347% |
| CCN(CC)S(=O)(=O)c1ccc2c3c(cccc13)C(=O)N2 | 9.9% | 12.3% | 625% |
| Cc1ccc(S(=O)(=O)N2CCN(S(=O)(=O)N(C)C)CC2)c(C)c1 | 10.6% | 18.2% | 269% |

| SMILES | double positive events (at 7.7 µM) | double positive events [1] | percent response (vesicle binding) (at 7.7 µM) |
| --- | --- | --- | --- |
| OC1(CC#CCN2CCCCC2)c2ccccc2-c2ccccc21 | 41.9% | 24% | 333% |
| COc1ccc(CCNC(=O)c2cccc(NC3=NC4CS(=O)(=O)CC4S3)c2)c(OC)c1 (stereo not drawn) | 24.4% | 24.5% | 321% |
| O=[N+]([O-])c1ccc2nc(-c3ccccn3)[nH]c2c1 | 35.9% | 14.8% | 389% |
| COc1ccc(N2CCN(c3c(S(=O)(=O)c4ccccc4)cnc4ccc(OC)cc34)CC2)cc1 | 21.9% | 13% | 250% |
| Cc1ccsc1C(=O)N1CCCC(N(C)Cc2ccccc2)C1 (stereo not drawn) | 32.3% | 16% | 681% |
| C[C@H](CO)N1C[C@H](C)[C@@H](CN(C)C(=O)Nc2ccc3c(c2)OCO3)Oc2c(NC(=O)c3ccncc3)cccc2C1=O | 27.1% | 19% | 198% |
| Cc1ccn2c(-c3n[nH]c(=S)n3Cc3ccccc3)c(C)nc2c1 | 9.7% | 18.7% | 138% |
| CCCN(C(=O)/C=C/c1nc2ccccc2s1)C1CCS(=O)(=O)C1 (stereo not drawn) | 38.9% | 6% | 302% |
| CCN(CC)c1ccc(CNc2nc3ccccc3n2CC)cc1 | 13.4% | 18% | 473% |
| CN(C)S(=O)(=O)c1ccc(Cl)c(NC(=O)COc2ccccc2[N+](=O)[O-])c1 | 11% | 34.5% | 312% |
| CC1CCCCN1CCNC(=O)CCc1nnc2n(Cc3ccccc3)c(=O)c3ccccc3n12 (stereo not drawn) | 33.3% | 7.1% | 369% |
| COC(=O)c1ccccc1NC(=O)C1CCN(C(=O)c2cc(OC)cc(OC)c2)CC1 | 10.2% | 6.6% | 364% |
| COc1cccc(/C=N/NC(N)=S)c1OCc1ccccc1Cl | 27.2% | 10.5% | 243% |
| CC(NC(=O)Nc1cccnc1)(C(F)(F)F)C(F)(F)F | 7.6% | 22.1% | 147% |
| Cn1c(N)c(C(=O)COC(=O)c2ccccc2C(=O)c2ccccc2)c(=O)n(C)c1=O | 13.5% | 7.9% | 163% |
| CCCN1C(=O)C(=O)N(CC(=O)c2cc(C)n(C3CC3)c2C)C1=O | 13.4% | 24.6% | 424% |
| COc1ccc(Nc2nc(Cl)nc(N3CCN(c4ccc(OC)cc4)CC3)n2)cc1 | 9.3% | 23% | 121% |
| CC(C)c1ccc(NC(=O)COC(=O)[C@H](CCC(N)=O)NC(=O)c2ccc(F)cc2)cc1 | 29.5% | 12.4% | 180% |

Looked up one by one from the entries so far, five records:

| SMILES | double positive events (at 7.7 µM) | double positive events [1] | percent response (vesicle binding) (at 7.7 µM) |
| --- | --- | --- | --- |
| CC(=O)Nc1ccc2nc(C3CC3)n(Cc3ccc(Cl)cc3)c(=O)c2c1 | 21% | 6.7% | 287% |
| CC(=O)c1ccc(NC(=O)c2ccc3c(Cl)c4c(nc3c2)CCCC4)cc1 | 15.1% | 17.6% | 198% |
| C/C(=N\NC(=O)c1ccccc1[N+](=O)[O-])c1c(O)cc(C)oc1=O | 16.1% | 22.8% | 318% |
| CCOc1ccccc1-n1c(SCC(N)=O)nnc1-c1ccc(O)cc1 | 9.1% | 22% | 139% |
| CCOC(=O)c1cnc(=O)[nH]c1C | 14.2% | 10.9% | 284% |

From PubChem BioAssay AID2810 (NMMLSC, 2010)
